Laboratory results: PubChem BioAssay AID743454 (Peter MacCallum Cancer Centre, 2014)
Test: 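Knock-downs lowering viability or raising caspase 3/7 activity in vorinostat-treated resistant cells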 (primary screen). Cells: human HCT116-VR colon cancer cells, selected for vorinostat resistance. Reagent: siRNA pool against human genes, 40 nM siRNA pool. Time to read-out: vorinostat for 24 h, read-out about 72 h after transfection. Conditions: vorinostat at 2.5 µM final. Measurement: 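Two measures, CellTiter-Fluor viability and luminescent caspase 3/7 activity, each as fold change against same-plate mock wells, mean of duplicates, then screen-wide robust z-score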. Scale: viability robust z-score: higher = more viable cells than screen typical; caspase robust z-score: higher = more caspase 3/7 activity than screen typical. Call rule: 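a knock-down is a hit when classed RV1 or RV2 for lowered viability, or CA1 or CA2 for caspase activation; those lethal without drug were dropped; hits were retested singly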.
The deposit covers about 18,000 reagents; shown is a part drawn at random. 450 of all reagents (2.5%) count as active. 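Single biological run; no consistent viability z cut-off exists, so the class columns, not z-scores, define the calls.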 A number with no mark means an inactive call. The numbers tell different reagents against one gene apart.

target gene | pool no. | viability hit class | caspase hit class | viability robust z-score | caspase robust z-score
PCDHGA6 | 1 | no change | no change | -0.35 | 0.05
FBLN7 | 1 | no change | no change | -0.44 | 0.45
STOX1 | 1 | no change | no change | 0.82 | -0.24
VWA2 | 1 | no change | no change | -0.02 | -0.66
AKT2 | 1 | no change | no change | 0.78 | -0.37
CUL2 | 1 | no change | no change | -0.87 | 0.54
SAPCD1 | 1 | no change | no change | -1.16 | 2.71
OR4N4 | 1 | no change | no change | -0.4 | -0.4
USF1 | 1 | no change | no change | 0.84 | -0.12
DDX5 | 1 | no change | no change | -0.29 | -0.19
LRRN4 | 1 | no change | no change | 0.18 | 0.54
REEP5 | 1 | no change | no change | -0.33 | -0.9
MSANTD1 | 1 | no change (active) | CA1 (caspase activation) | -2.77 | 5.9
PDZD8 | 1 | no change | no change | 0.32 | -0.89
INTS11 | 1 | no change | no change | 1.08 | -0.52
NUP93 | 1 | RV2 (reduced viability) (active) | no change | -3.3 | 2.56
ZNF76 | 1 | no change | no change | -0.22 | 3.17
ABHD3 | 1 | no change | no change | -0.29 | -0.48
CYP2A7 | 1 | no change | no change | 1.19 | -0.3
YIF1A | 1 | no change | no change | 0.01 | -0.08
ACAD8 | 1 | no change | no change | 0.68 | -0.74
GABRR3 | 1 | RV2 (reduced viability) (active) | no change | -2.92 | 4.1
FAM219B | 1 | no change | no change | -0.62 | -0.22
LIG4 | 1 | no change | no change | -0.91 | -0.29
CLPSL2 | 1 | no change | no change | 0.55 | -0.11
LYZL1 | 1 | no change | no change | 0.57 | -0.48
INMT | 1 | no change | no change | 0.53 | -1.27
TMEM200B | 1 | no change | no change | -0.4 | -0.94
KRTAP27-1 | 1 | no change (active) | CA2 (caspase activation) | -1.18 | 5.94
CLEC4M | 1 | no change | no change | 0.64 | -0.61
AHCY | 1 | no change | no change | -1.38 | 0.22
TAF15 | 1 | no change | no change | 0.48 | 0.03
CHMP1B | 1 | no change | no change | 0.44 | 1.21
BMP3 | 1 | no change | no change | 1.24 | -0.66
GRIK4 | 1 | no change | no change | -2.85 | 4.47
IFNAR1 | 1 | no change | no change | 0.78 | -0.43
SP6 | 1 | no change | no change | -1.25 | -0.21
COL5A3 | 1 | no change | no change | 0.88 | -0.88
LSM10 | 1 | no change | no change | 0.1 | 0.59
SLC25A18 | 1 | no change | no change | 1.38 | -0.05
MEGF8 | 1 | no change | no change | -0.24 | -0.8
AQP12A | 1 | no change | no change | -0.98 | 1.42
GGA3 | 1 | no change | no change | 0.34 | -0.86
OR51L1 | 1 | no change | no change | -2.23 | 4.18
AASDH | 1 | no change | no change | 0.7 | -0.2
C19orf47 | 1 | no change | no change | 0.45 | 0.53
BNIP5 | 1 | no change | no change | 0.12 | 0.18
PITPNM2 | 1 | no change | no change | -0.74 | 1.7
CREB3 | 1 | no change | no change | -0.86 | -0.1
EDEM1 | 1 | no change | no change | 0.63 | -0.42
CLDND1 | 1 | no change | no change | -1.73 | -0.48
YIPF4 | 1 | no change | no change | -0.78 | 0.23
IDI2 | 1 | no change | no change | 0.04 | -0.1
SGCA | 1 | no change | no change | -0.12 | 1.59
PRSS48 | 1 | no change | no change | 0.95 | 1.46
CD3E | 1 | no change | no change | 0.72 | -1.17
MXD4 | 1 | no change | no change | 0.02 | -0.18
HOXB4 | 1 | no change | no change | -0.09 | 0.96
STIP1 | 1 | no change | no change | 2.23 | -0.3
DST | 1 | no change | no change | 2.24 | 0.12
CCNJ | 1 | no change | no change | -0.11 | -0.92
TMEM132E | 1 | no change | no change | 0.22 | -0.36
CCNY | 1 | no change | no change | -0.3 | -0.01
PYM1 | 1 | no change | no change | -0.66 | -0.44
RCC1 | 1 | no change | no change | 0.58 | 2.46
RCC1 | 2 | no change | no change | -0.44 | 3
MBD2 | 1 | no change | no change | -2.42 | 1.52
ZNF407 | 1 | no change | no change | -0.36 | 1.08
EXTL3 | 1 | no change | no change | 0.36 | -0.76
CARD16 | 1 | no change | no change | 0.4 | -0.29
CYP4F11 | 1 | no change | no change | 0.53 | -0.4
KRTAP10-4 | 1 | no change | no change | 1.37 | 0.9
GLYATL2 | 1 | no change | no change | -0.46 | 1.01
